Measured values published in PMC5896254.
No constants are given. Whether binding was seen depends on the method and setting. In cells and extracts the contact can be indirect. Some binding calls cover weakened binding; strength is not graded here.

Protein sequences, listed by entry. Tags and fused reporters are not part of them. Lines headed by an entry give the natural chain unless they say otherwise; changes in a name come on top.
UniProt P62491: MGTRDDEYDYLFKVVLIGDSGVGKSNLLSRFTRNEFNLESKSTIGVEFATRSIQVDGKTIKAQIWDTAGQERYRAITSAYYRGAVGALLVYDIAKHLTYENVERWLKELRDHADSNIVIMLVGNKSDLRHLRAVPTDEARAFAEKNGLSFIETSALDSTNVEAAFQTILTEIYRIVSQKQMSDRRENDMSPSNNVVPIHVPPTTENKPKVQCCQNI

Target: T1, WIPI1 (UniProt Q5MNZ9)
T1 sequence: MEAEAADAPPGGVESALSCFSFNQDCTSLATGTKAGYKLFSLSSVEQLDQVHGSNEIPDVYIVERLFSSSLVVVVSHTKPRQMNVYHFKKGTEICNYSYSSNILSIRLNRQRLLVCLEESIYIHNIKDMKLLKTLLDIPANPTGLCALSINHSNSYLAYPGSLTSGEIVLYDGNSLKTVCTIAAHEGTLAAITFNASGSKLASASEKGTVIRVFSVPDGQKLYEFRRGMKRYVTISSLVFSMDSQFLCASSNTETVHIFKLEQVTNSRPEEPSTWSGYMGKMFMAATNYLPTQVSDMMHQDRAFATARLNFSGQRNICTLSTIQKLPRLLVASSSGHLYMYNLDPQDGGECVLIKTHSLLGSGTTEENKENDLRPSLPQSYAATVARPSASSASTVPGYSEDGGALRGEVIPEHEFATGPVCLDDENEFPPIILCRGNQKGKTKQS
Assay: pull-down; WIPI1 as bait, RAB11A detected; nothing more told in the text shown (Figure S1Q)

binding: binds
Substance: RAB11A (pulled down by WIPI1, Figure S1Q) (from UniProt P62491 1-216)
